This test is described as follows: qHTS Assay for Lipid Storage Modulators in Drosophila S3 Cells.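 As to cell number change: cells counted by Cell Tracker Red CMTPX staining in the red channel.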 Particulars: BODIPY lipid droplet fluorescence, 18-24 h; for cell number change: measured here: cell count max response, cells fed with added oleic acid. The essentials: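 Drosophila S3 cells loaded with oleic acid (400 uM, as added) and compounds at several concentrations; lipid droplets imaged by 488-nm laser-scanning cytometry, 500–530 nm intensity and object ratio to cell channel. Percent activity normalized to 20 uM Triacsin C.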

Where [1] appears, read: measured here: cell number channel AC50, cells fed with added oleic acid.
Where [2] appears, read: measured here: lipid fluorescence (Fed channel) AC50, cells fed with added oleic acid.

SMILES strings stand for the structures. The list shows a part of the results. The main result of the screen is listed elsewhere. These columns were measured beside it and carry no call. Compounds called inactive in the main read-out are mostly missing here. The note in brackets gives the kind of curve behind each potency; many fits are weak.

Regarding `O=C(CSc1nnc(CNC(=O)c2ccccc2)o1)NCc1ccco1`, the cell number change is -5.72%.

Broadly, the AC50 is the concentration at which the activity in the assay is half-maximal. A low value points to greater potency. As for `CCOC(=O)Nc1csnn1`, the cell number change stood at 8.33%. The concentration at half-maximal activity (AC50) under setting [1] was 2.91 µM [rising, partial curve].

For the compound `CCC(C)(C)n1nnnc1CN(Cc1cc2cc(OC)ccc2[nH]c1=O)C1CCCC1`, the cell number change is -25.2%. On to `Cc1ccc(S(=O)(=O)c2ccccc2)cc1S`, for which the cell number change was -40%. Further, under setting [1], the AC50 was 7.31 µM [falling, partial curve]. On to `NS(=O)(=O)c1ccc(NC(=O)c2ccc(F)cc2F)c(NC(=O)c2ccc(F)cc2F)c1`, for which the cell number change stood at 5.13%.

In the case of `COc1cccc(CC2(CO)CCCN(Cc3ccccc3Cl)C2)c1` (stereo not given), the cell number change is -27.9%. In addition, under setting [2], the AC50 was 29.1 µM [falling, single point].

Take `CC(C)c1ccc(/C=N/NC(=O)c2cccc(Cl)c2)cc1`: the cell number change was determined as 38.3%. Moreover, under setting [1], the AC50 was 13 µM [rising, partial curve]. Also, the AC50 under setting [2] is 6.51 µM [falling, single point]. In the case of `CCN(C(=O)COc1ccccc1)C1CCCCC1`, the cell number change stood at 8.47%. Further, the half-maximal activity concentration (AC50) under setting [2] was 0.103 µM [rising, full curve, poor fit]. On to `CC(C)(C)OC(=O)N1CCC(CNC(=O)c2ccc(F)cc2F)CC1`, for which the cell number change is -20.9%. Besides, the AC50 under setting [2] is 18.4 µM [falling, partial curve, poor fit]. As to `COc1cc(NC(=O)c2cc3ccccc3o2)ccc1NC(=O)c1ccco1`, under setting [2], the AC50 is 0.411 µM [falling, full curve].

Turning to `CCOC(=O)Cc1csc(NC(=O)C2CCCCC2C(=O)O)n1` (stereo not given), the cell number change stood at 11.4%. Moreover, the AC50 under setting [2] was 3.26 µM [rising, single point]. On to `Cc1cc(C)n(C(=O)c2ccc(NC(=O)CC(C)C)cc2)n1`, for which the cell number change is -2.79%. As to `CCOC(=O)Nc1ccc(Oc2ccccc2)cc1`, the AC50 under setting [1] is 0.92 µM [rising, partial curve]. On to `O=C(CSc1ccc2ccccc2n1)c1ccc2c(c1)OCO2`, for which the AC50 is, setting by setting: under setting [1], 0.517 µM [rising, full curve]; under setting [2], 1.46 µM [rising, full curve].

For the compound `O=C(O)CSc1nnnn1-c1ccc2c(c1)OCCO2`, the cell number change was -94.7%.

For the compound `O=C(NC(=S)N1CCCC1)c1ccccc1Cl`, the cell number change came to 15.7%. Further, the AC50 under setting [1] was 3.66 µM [rising, partial curve, poor fit]. Regarding `Cc1ccc(-c2ccc(/C=N/N3C(=O)C4C5C=CC(C6CC56)C4C3=O)o2)c([N+](=O)[O-])c1` (stereo not given), the cell number change came out at 68.2%. The AC50 under setting [1] was 5.17 µM [rising, full curve]. Regarding `O=C(O)CN1C(=O)C(=O)N(Cc2ccc(C(F)(F)F)cc2)C1=O`, the AC50 under setting [2] was 0.651 µM [rising, full curve, poor fit]. Take `O=C(COc1ccc(Br)cc1)OCc1nnc(-c2ccccc2)o1`: the cell number change was 3.18%. The AC50 under setting [2] was 0.00461 µM [falling, full curve, poor fit].

For the compound `CSCCC(NC=C1C(=O)OC(C)(C)OC1=O)C(=O)O` (stereo not given), the cell number change was determined as 17.2%. Under setting [1], the AC50 was 0.82 µM [falling, single point]. The AC50 under setting [2] is 29.1 µM [rising, single point]. `CCN1CCN(CCCN(Cc2ccco2)C(=S)Nc2cc(Cl)ccc2C)CC1`: the cell number change was 85%. With `O=C(NCC1OCCCN1S(=O)(=O)c1cc(F)ccc1F)C(=O)NC1CCCCCC1` (stereo not given), the concentration at half-maximal activity (AC50) under setting [2] was 2.06 µM [falling, partial curve]. For the compound `O=C(Cn1ccc(NC(=O)OCc2ccccc2)nc1=O)NCC1CCCO1` (stereo not given), the cell number change was -4.41%. For the same compound, the half-maximal activity concentration (AC50) under setting [2] was 1.16 µM [rising, single point]. On to `NNc1nc(-c2ccccc2Cl)nc2ccccc12`, for which the cell number change is -10.6%. Further, under setting [2], the AC50 is 18.4 µM [falling, single point]. As for `Cc1n[nH]c(=O)nc1NCCN(C)C`, the cell number change was found to be 7.41%.

Take `O=C(NCc1nnc2c(C(F)(F)F)cc(Cl)cn12)c1ccc2c(c1)OCO2`: the cell number change stood at 10.7%. The AC50 under setting [2] was 0.58 µM [falling, single point]. For the compound `COc1ccccc1-n1cnnc1SCC(=O)Nc1cc(C(C)(C)C)nn1-c1ccccc1`, the cell number change was -28.5%. Still for that read-out and setting: the value for `CC1(C)Cc2ccccc2/C(=C/C(=O)c2ccccc2)N1` was -27.2%. In the case of `CC[C@@]12C(=O)N(c3ccc(C)cc3)C(=O)N1[C@H](c1ccc(Br)cc1)[C@@H]1C(=O)N(C(C)(C)C)C(=O)[C@@H]12`, the cell number change amounted to 28.2%. In addition, under setting [2], the AC50 was 0.58 µM [rising, single point].

Take `CC(C)(O)c1[nH]c2cc(F)ccc2c1C(C)(C)O`: the cell number change was found to be 1.94%. Also, the AC50 under setting [2] is 29.1 µM [rising, single point].

Turning to `CCn1c(SCC(=O)Nc2ccc3c(c2)OCCO3)nnc1-c1ccncc1`, the cell number change is 6.09%.

For `CCS(=O)(=O)Nc1cccc(-c2cc(-c3ccccc3)c3cc(C)ccc3n2)c1`, the cell number change was -43.1%. For the same compound, the AC50 under setting [1] was 11.6 µM [falling, partial curve, poor fit]. The AC50 under setting [2] was 13 µM [falling, partial curve, poor fit]. `Cc1cc(C)c(C#N)c(SCc2nc3ccccc3c(=O)[nH]2)n1`: the cell number change was determined as 18.9%. For the same compound, the concentration at half-maximal activity (AC50) under setting [2] was 0.0366 µM [rising, full curve, poor fit]. For the compound `Cc1nonc1C(=O)N/N=C/c1cccc(O)c1`, the cell number change is -25.2%. For the same compound, the AC50 under setting [1] is 2.06 µM [falling, full curve, poor fit]. In addition, the AC50 under setting [2] was 0.0731 µM [falling, full curve, poor fit]. `O=S(=O)(NCC1CCCO1)c1ccc(S(=O)(=O)N2CCc3ccccc3C2)cc1` (stereo not given): the cell number change came to 34.5%. For the same compound, the AC50 under setting [1] is 4.11 µM [rising, partial curve]. As to `CCC(C)N(C(=O)COC(=O)/C=C/c1ccc(O)c(OC)c1)C1CCS(=O)(=O)C1` (stereo not given), the cell number change was determined as 5.26%. On to `COc1ccc(C2(O)CN(c3ccccc3)C3=[N+]2CCS3)cc1OC` (stereo not given), for which, under setting [2], the AC50 was 0.411 µM [rising, partial curve, poor fit]. As to `COCCn1c(N)c(N(Cc2ccccc2)C(=O)CSCC(=O)Nc2ccc(OC)cc2)c(=O)[nH]c1=O`, the cell number change is -19.2%. Under setting [2], the AC50 is 0.651 µM [falling, single point].

Regarding `COc1ccccc1N(CC(=O)N/N=C(\C)c1cccc(Br)c1)S(C)(=O)=O`, the concentration at half-maximal activity (AC50) is 0.92 µM [rising, partial curve] under setting [1] and 1.03 µM [rising, full curve] under setting [2].

As to `O=C(O)C1CC(=O)N(CCc2ccc(F)cc2)C1` (stereo not given), the cell number change is 13.5%. Moreover, the concentration at half-maximal activity (AC50) under setting [2] was 0.231 µM [rising, full curve, poor fit]. In the case of `COc1cccc(C(=O)N2CCN(Cc3ccc4c(c3)OCO4)CC2)c1OC`, the cell number change came out at 0.517%. Further, the AC50 under setting [2] is 6.51 µM [falling, single point]. Take `Cc1cc(C)c(CN2CCC(n3nccc3NC(=O)c3ccccc3Cl)CC2)cc1C`: the cell number change is 42.7%. Under setting [1], the AC50 was 29.1 µM [rising, single point]. For the same compound, under setting [2], the AC50 is 8.2 µM [rising, partial curve, poor fit]. Consider `COc1ccc(-c2cnn(C3CCS(=O)(=O)C3)c2N)cc1` (stereo not given), for which the cell number change came to 5.59%. The AC50 under setting [2] was 2.06 µM [rising, partial curve].

With `Cc1ccnc(Sc2ncccc2[N+](=O)[O-])n1`, the AC50 under setting [2] was 25.9 µM [falling, partial curve]. Take `COc1ccc(C(=O)Oc2ccc(/C=N/NC(=O)Cc3ccc([N+](=O)[O-])cc3)cc2)cc1`: the cell number change was 41%. Also, the AC50 under setting [1] is 0.231 µM [rising, full curve]. Besides, under setting [2], the AC50 was 32.6 µM [rising, single point].

For `COc1cccc(/C=c2\s/c(=C\C(=O)C(C)(C)C)[nH]c2=O)c1`, the cell number change was -41.2%. The AC50 under setting [1] was 6.51 µM [falling, partial curve, poor fit].

For `COc1ccccc1C(=O)OCc1ccc2sc(C)nc2c1`, the cell number change is -1.73%. For the same compound, under setting [1], the AC50 is 1.12 µM [falling, partial curve, poor fit]. For the same compound, the half-maximal activity concentration (AC50) under setting [2] was 0.355 µM [falling, full curve].

As for `CCOC(=O)CC(Nc1nc(N2CCOCC2)nc(N2CCOCC2)n1)c1ccccc1Cl` (stereo not given), the cell number change was -16.7%. Further, the half-maximal activity concentration (AC50) under setting [2] is 0.259 µM [falling, full curve, poor fit]. For the compound `COc1ccc2cc(C(=O)Nc3ccc(O)cc3)sc(=O)c2c1OC`, the cell number change came out at 33.2%. Further, the half-maximal activity concentration (AC50) under setting [2] is 4.61 µM [rising, partial curve]. Consider `COc1ccc(S(=O)(=O)N2CCOCC2)cc1NC(=O)c1cccc(-n2cccc2)c1`, for which the half-maximal activity concentration (AC50) under setting [2] is 6.51 µM [rising, partial curve]. For `COCCN(C(=S)Nc1ccc(C)cc1)C(C)c1cccnc1` (stereo not given), the AC50 under setting [1] was 3.26 µM [rising, single point]. Turning to `CN(C)S(=O)(=O)c1ccc(S(=O)(=O)N(Cc2ccco2)Cc2ccccc2Cl)cc1`, the cell number change was -143%. Moreover, the AC50 under setting [1] is 25.9 µM [falling, partial curve]. Besides, the AC50 under setting [2] is 1.3 µM [falling, partial curve]. Take `Cc1cc(-c2ccccc2)n(-c2ccc(C(=O)N3CCN(c4ncccn4)CC3)cc2)n1`: the cell number change stood at 98.4%. Also, the AC50 under setting [1] is 0.461 µM [rising, partial curve, poor fit]. Moreover, the concentration at half-maximal activity (AC50) under setting [2] is 25.9 µM [rising, partial curve].

With `CSc1ccc(CN2CCC(n3nccc3NC(=O)CCCc3ccccc3)CC2)cc1`, the cell number change was -3.4%. Moreover, under setting [2], the half-maximal activity concentration (AC50) is 6.51 µM [rising, single point]. As for `CC(C)(C)CC(=O)N1CCN(c2ccc(S(=O)(=O)N3CCOCC3)cc2[N+](=O)[O-])CC1`, the cell number change is -21%. The AC50 under setting [2] was 0.411 µM [rising, partial curve, poor fit]. Consider `O=C(c1ccc(Cl)c(S(=O)(=O)N2CCCCCC2)c1)N1CCCC(C(F)(F)F)C1` (stereo not given), for which the AC50 under setting [2] was 6.51 µM [rising, partial curve]. `O=C(CN(C(=O)CCC(=O)Nc1ccccn1)c1cccc(F)c1)NCc1ccc(F)cc1`: the cell number change came to 8.97%. `O=C(NC1CCN(S(=O)(=O)c2ccccc2F)CC1)c1ccco1`: the cell number change stood at 2.61%. Also, under setting [2], the half-maximal activity concentration (AC50) was 29.1 µM [falling, single point].

Turning to `Cn1nccc1C(=O)N1CCN(S(=O)(=O)c2ccc(Br)s2)CC1`, the cell number change was found to be 42.7%. The AC50 under setting [1] is 25.9 µM [rising, single point].

On to `Nc1nc(N)nc(-c2ccccc2)n1`, for which the cell number change was -150%. Moreover, under setting [1], the AC50 is 29.1 µM [falling, partial curve]. Consider `CCCCN(C(=O)c1cc2c(s1)CCCC2)c1c(N)n(CCC)c(=O)[nH]c1=O`, for which the cell number change came out at 2.28%. The concentration at half-maximal activity (AC50) under setting [2] is 29.1 µM [rising, single point].

The values are drawn from PubChem BioAssay AID2685 (National Center for Advancing Translational Sciences (NCATS), 2010).
